# Assay results published in the supplement of paper PMC11098740.
# Sequences of proteins named here, by UniProt entry; tags and fusion partners are left off.
# UniProt O14980, whole entry: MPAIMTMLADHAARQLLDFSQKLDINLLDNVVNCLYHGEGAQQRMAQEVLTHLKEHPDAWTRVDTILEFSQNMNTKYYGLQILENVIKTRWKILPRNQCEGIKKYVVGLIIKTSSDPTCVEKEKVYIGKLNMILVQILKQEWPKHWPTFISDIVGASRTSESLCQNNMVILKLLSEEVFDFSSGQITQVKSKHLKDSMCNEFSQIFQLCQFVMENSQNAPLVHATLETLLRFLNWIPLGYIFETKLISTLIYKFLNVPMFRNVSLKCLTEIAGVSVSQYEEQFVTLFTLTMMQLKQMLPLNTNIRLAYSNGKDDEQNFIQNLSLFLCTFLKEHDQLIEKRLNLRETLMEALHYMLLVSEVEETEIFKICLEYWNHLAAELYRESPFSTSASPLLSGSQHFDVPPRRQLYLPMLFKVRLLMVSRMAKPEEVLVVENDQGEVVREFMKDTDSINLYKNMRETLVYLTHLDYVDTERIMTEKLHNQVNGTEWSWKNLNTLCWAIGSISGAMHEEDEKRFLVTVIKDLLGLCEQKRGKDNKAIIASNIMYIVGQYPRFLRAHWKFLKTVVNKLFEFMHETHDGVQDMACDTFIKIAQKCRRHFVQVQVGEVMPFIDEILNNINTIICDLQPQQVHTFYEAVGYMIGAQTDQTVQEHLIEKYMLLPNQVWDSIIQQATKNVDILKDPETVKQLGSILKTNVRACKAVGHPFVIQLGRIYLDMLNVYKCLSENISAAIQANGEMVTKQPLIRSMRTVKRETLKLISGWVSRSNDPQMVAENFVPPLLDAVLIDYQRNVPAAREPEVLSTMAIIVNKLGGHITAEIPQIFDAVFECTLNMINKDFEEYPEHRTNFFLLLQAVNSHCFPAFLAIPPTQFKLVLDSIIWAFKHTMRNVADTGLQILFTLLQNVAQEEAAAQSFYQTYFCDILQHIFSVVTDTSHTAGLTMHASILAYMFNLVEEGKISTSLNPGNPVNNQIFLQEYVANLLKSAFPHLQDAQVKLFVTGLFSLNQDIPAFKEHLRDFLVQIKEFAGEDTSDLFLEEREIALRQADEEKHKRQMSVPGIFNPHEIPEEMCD
# The other results are listed elsewhere or left out. Repeats are few or missing, and single values can be far off.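 Test system: a mixed pool of 41 HAP1 clones in which 61 cancer-associated proteins carry fluorescent tags inserted into introns, and each clone is identified from its image pattern. Read-outs are compared with DMSO-treated control wells. The BRD4 degrader dBET6 served as the positive control.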
# Assays:
# [1] = target: XPO1 (intron 15 mScarlet tag, HAP1) (UniProt O14980); assay: XPO1 fluorescence intensity change vs DMSO (log2 fold change); higher = more XPO1 protein; conditions: 6 h
# [2] = target: BRD4 (intron 10 mScarlet tag, HAP1) (UniProt O60885); assay: BRD4 median nuclear fluorescence intensity change vs DMSO (log2 fold change); higher = more BRD4 protein; conditions: 6 h
Compound,XPO1 fluorescence intensity change (log2) [1],BRD4 median nuclear fluorescence intensity change (log2) [2]
CCn1c(=O)c2ccccc2n2c(CCl)nnc12 (10 µM),0.119,-0.0154
COc1ccnc(NNC(=O)c2ccc3ccccc3n2)n1 (10 µM),0.159,0.0318
O=S(=O)(Cc1cccc(Cl)c1)c1nc2ccccc2s1 (0.1 µM),-0.0453,-0.0255
CN1CC(C(=O)OCC(=O)c2c(-c3ccccc3)[nH]c3ccccc23)CC1=O (stereo not drawn) (10 µM),-0.0511,0.00326
CN(C)c1ccc(C(=NC(=O)c2ccccc2NS(=O)(=O)c2ccc(F)cc2)c2ccc(N(C)C)cc2)cc1 (10 µM),0.154,0.166
CC(=O)Nc1ccc(-c2csc(NC(=O)c3cnc4c(cnn4C(C)C)c3)n2)cc1 (10 µM),0.0231,-0.0463
COC(=O)C1=C(CCl)N(c2ccc(C)cc2)C(=O)NC1c1ccccc1 (stereo not drawn) (10 µM),-0.147,0.000972
COc1ccccc1CCC(=O)Nc1ccc(Br)cn1 (10 µM),0.217,0.0286
CC1(C)Cc2cccc(OCC(=O)Nc3nc4c(F)cc(F)cc4s3)c2O1 (1 µM),-0.157,-0.15
CCn1cc(NC(=O)c2cc(-c3ccccc3OC)on2)cn1 (1 µM),-0.238,-0.0239
COc1ccc(CCNc2ncnc3scc(-c4cccs4)c23)cc1OC (10 µM),0.0586,-0.13
COc1ccc(-c2nc(NC(=O)CCCCl)sc2C)cc1 (10 µM),0.00836,0.0397
Cc1noc(C)c1COc1cccc(C(=O)OCC(=O)c2ccc(F)cc2)c1 (0.1 µM),0.0937,0.155
Cc1ccccc1N1CCN(C(=O)c2cn[nH]c2-c2ccccc2)CC1 (1 µM),-0.0674,-0.0506

# One compound at a time, as listed above:
# COC(=O)C1=C(CCl)N(c2ccc(C)cc2)C(=O)NC1c1ccccc1 (stereo not drawn) (10 µM) in the list: XPO1 fluorescence intensity change (log2) [1]: -0.147; BRD4 median nuclear fluorescence intensity change (log2) [2]: 0.000972
# Cc1noc(C)c1COc1cccc(C(=O)OCC(=O)c2ccc(F)cc2)c1 (0.1 µM) in the list: XPO1 fluorescence intensity change (log2) [1]: 0.0937; BRD4 median nuclear fluorescence intensity change (log2) [2]: 0.155
